Experimental data as given in paper PMC10952895, “Assessment of the potential of novel and classical opioids to induce respiratory depression in mice” (British Journal of Pharmacology, 2023).
These are yes or no findings as the source states them, for the method shown. Binding seen in cells or lysates may run through a third protein. Some entries that bind do so weakly or less than the wild type.

Protein sequences, listed by entry. Tags and fused reporters are not part of them.
UniProt P42866: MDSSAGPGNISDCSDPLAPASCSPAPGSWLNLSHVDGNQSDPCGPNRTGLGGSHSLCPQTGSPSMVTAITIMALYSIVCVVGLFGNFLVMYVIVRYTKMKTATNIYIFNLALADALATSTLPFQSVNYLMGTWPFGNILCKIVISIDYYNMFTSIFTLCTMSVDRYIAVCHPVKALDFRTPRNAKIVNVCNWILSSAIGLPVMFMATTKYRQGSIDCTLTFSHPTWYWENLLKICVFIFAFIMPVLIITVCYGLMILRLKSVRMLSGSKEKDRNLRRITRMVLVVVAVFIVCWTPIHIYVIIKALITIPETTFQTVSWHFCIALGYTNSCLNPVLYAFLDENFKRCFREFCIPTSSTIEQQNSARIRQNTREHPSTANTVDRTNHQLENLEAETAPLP
UniProt P32121: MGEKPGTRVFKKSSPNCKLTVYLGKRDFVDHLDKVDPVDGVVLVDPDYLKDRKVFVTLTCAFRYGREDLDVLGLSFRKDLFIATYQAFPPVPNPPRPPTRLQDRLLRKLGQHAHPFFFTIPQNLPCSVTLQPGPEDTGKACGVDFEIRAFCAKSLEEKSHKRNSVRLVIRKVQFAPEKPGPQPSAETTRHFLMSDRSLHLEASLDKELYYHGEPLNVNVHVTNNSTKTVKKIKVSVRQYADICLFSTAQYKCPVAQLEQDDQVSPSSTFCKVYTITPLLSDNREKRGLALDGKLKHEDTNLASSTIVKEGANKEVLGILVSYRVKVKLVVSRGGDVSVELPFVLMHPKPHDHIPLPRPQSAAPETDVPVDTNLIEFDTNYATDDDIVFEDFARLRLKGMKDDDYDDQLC

Biological target: μ-receptor-RLuc8 (UniProt P42866)
Test: FRET or BRET; live HEK 293 cells transiently transfected with μ-receptor-RLuc8 (donor), arrestin-3-Venus (acceptor) and GRK2; PBS, coelenterazine h 5 μM; opioid agonists added (DAMGO, morphine, oxycodone, methadone, tianeptine, oliceridine, SR-17018); response 10 min after opioid addition, normalised to DAMGO

binding: binds
Substance: arrestin-3-Venus (from UniProt P32121 1-409)
